Values of other authors as cited in US20250295677A1, “METHOD FOR TREATING CANCER BY USING TH-302 ALONE OR IN COMBINATION WITH PARP INHIBITOR” (ASCENTAWITS PHARMACEUTICALS, LTD., priority 2022, published 2025).
For at least one compound, name, drawing or mass did not settle the structure.

Experiments:
[1] = system: cells deficient in BRCA1, BRCA2, and FANCA mediated double-strand DNA repair; settings: in vitro; cited from earlier work
[2] = system: DNA repair mutant cell lines based on Chinese hamster ovary cells; settings: cited from earlier work

Cn1c(COP(=O)(NCCBr)NCCBr)cnc1[N+](=O)[O-] [TH-302, evofosfamide]
sensitivity to TH-302 [1]: enhanced sensitivity | sensitivity to TH-302 ([2]; cell lines deficient in base excision, nucleotide excision or non-homologous end-joining repair alone): not affected | sensitivity to TH-302 under hypoxia ([2]; cell lines deficient in homologous end-joining repair alone, or both homologous end-joining repair and nucleotide excision repair): remarkably increased sensitivity
